The experiment has as its target GFP-tagged full length human MVI heavy chain (human) (UniProt Q9UM54). Put plainly: co-IP; lysates of HEK 293 cells transiently transfected with GFP-tagged full length human MVI; anti-MVI antibody or normal rabbit serum overnight at 4°C, A/G magnetic beads; 50 mM Tris pH 7.5, 150 mM NaCl, 0.2% Triton X-100, 2 mM MgATP; blot with anti-AKAP9 or anti-DOCK7.

Sequences of proteins named here, by UniProt entry; tags and fusion partners are left off.
UniProt Q9UM54: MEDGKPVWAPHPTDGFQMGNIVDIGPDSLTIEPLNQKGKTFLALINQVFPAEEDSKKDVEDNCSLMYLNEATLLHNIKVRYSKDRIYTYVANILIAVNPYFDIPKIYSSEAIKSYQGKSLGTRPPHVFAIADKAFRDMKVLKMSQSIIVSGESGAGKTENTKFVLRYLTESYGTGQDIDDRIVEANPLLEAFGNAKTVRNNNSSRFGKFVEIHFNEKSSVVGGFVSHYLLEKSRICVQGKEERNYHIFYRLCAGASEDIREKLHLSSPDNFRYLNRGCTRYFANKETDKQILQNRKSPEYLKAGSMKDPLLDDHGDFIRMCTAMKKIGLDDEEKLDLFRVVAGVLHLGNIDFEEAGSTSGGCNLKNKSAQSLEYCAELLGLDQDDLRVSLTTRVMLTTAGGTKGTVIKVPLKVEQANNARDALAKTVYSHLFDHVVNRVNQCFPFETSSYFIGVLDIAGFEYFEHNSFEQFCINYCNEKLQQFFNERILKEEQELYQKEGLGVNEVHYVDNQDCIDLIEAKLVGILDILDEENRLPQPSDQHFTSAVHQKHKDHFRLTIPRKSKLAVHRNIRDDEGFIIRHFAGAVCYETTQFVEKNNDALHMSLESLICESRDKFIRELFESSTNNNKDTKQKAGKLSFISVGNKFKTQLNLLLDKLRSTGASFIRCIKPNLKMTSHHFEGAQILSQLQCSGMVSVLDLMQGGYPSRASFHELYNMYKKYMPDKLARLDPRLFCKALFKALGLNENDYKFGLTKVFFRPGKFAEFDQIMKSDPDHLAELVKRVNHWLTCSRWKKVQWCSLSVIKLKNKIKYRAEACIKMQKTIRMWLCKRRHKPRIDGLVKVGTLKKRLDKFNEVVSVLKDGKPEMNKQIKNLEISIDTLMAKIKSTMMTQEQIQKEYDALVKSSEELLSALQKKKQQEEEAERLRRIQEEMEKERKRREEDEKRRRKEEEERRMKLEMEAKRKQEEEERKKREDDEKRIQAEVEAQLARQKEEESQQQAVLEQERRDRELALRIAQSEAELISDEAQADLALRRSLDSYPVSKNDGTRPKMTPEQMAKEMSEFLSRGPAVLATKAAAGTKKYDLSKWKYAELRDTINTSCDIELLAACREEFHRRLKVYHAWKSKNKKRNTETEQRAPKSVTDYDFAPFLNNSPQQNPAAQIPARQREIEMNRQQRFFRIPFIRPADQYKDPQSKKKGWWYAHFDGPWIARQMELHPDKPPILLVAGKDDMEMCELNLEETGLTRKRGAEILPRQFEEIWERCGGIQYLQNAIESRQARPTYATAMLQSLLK
UniProt Q99996: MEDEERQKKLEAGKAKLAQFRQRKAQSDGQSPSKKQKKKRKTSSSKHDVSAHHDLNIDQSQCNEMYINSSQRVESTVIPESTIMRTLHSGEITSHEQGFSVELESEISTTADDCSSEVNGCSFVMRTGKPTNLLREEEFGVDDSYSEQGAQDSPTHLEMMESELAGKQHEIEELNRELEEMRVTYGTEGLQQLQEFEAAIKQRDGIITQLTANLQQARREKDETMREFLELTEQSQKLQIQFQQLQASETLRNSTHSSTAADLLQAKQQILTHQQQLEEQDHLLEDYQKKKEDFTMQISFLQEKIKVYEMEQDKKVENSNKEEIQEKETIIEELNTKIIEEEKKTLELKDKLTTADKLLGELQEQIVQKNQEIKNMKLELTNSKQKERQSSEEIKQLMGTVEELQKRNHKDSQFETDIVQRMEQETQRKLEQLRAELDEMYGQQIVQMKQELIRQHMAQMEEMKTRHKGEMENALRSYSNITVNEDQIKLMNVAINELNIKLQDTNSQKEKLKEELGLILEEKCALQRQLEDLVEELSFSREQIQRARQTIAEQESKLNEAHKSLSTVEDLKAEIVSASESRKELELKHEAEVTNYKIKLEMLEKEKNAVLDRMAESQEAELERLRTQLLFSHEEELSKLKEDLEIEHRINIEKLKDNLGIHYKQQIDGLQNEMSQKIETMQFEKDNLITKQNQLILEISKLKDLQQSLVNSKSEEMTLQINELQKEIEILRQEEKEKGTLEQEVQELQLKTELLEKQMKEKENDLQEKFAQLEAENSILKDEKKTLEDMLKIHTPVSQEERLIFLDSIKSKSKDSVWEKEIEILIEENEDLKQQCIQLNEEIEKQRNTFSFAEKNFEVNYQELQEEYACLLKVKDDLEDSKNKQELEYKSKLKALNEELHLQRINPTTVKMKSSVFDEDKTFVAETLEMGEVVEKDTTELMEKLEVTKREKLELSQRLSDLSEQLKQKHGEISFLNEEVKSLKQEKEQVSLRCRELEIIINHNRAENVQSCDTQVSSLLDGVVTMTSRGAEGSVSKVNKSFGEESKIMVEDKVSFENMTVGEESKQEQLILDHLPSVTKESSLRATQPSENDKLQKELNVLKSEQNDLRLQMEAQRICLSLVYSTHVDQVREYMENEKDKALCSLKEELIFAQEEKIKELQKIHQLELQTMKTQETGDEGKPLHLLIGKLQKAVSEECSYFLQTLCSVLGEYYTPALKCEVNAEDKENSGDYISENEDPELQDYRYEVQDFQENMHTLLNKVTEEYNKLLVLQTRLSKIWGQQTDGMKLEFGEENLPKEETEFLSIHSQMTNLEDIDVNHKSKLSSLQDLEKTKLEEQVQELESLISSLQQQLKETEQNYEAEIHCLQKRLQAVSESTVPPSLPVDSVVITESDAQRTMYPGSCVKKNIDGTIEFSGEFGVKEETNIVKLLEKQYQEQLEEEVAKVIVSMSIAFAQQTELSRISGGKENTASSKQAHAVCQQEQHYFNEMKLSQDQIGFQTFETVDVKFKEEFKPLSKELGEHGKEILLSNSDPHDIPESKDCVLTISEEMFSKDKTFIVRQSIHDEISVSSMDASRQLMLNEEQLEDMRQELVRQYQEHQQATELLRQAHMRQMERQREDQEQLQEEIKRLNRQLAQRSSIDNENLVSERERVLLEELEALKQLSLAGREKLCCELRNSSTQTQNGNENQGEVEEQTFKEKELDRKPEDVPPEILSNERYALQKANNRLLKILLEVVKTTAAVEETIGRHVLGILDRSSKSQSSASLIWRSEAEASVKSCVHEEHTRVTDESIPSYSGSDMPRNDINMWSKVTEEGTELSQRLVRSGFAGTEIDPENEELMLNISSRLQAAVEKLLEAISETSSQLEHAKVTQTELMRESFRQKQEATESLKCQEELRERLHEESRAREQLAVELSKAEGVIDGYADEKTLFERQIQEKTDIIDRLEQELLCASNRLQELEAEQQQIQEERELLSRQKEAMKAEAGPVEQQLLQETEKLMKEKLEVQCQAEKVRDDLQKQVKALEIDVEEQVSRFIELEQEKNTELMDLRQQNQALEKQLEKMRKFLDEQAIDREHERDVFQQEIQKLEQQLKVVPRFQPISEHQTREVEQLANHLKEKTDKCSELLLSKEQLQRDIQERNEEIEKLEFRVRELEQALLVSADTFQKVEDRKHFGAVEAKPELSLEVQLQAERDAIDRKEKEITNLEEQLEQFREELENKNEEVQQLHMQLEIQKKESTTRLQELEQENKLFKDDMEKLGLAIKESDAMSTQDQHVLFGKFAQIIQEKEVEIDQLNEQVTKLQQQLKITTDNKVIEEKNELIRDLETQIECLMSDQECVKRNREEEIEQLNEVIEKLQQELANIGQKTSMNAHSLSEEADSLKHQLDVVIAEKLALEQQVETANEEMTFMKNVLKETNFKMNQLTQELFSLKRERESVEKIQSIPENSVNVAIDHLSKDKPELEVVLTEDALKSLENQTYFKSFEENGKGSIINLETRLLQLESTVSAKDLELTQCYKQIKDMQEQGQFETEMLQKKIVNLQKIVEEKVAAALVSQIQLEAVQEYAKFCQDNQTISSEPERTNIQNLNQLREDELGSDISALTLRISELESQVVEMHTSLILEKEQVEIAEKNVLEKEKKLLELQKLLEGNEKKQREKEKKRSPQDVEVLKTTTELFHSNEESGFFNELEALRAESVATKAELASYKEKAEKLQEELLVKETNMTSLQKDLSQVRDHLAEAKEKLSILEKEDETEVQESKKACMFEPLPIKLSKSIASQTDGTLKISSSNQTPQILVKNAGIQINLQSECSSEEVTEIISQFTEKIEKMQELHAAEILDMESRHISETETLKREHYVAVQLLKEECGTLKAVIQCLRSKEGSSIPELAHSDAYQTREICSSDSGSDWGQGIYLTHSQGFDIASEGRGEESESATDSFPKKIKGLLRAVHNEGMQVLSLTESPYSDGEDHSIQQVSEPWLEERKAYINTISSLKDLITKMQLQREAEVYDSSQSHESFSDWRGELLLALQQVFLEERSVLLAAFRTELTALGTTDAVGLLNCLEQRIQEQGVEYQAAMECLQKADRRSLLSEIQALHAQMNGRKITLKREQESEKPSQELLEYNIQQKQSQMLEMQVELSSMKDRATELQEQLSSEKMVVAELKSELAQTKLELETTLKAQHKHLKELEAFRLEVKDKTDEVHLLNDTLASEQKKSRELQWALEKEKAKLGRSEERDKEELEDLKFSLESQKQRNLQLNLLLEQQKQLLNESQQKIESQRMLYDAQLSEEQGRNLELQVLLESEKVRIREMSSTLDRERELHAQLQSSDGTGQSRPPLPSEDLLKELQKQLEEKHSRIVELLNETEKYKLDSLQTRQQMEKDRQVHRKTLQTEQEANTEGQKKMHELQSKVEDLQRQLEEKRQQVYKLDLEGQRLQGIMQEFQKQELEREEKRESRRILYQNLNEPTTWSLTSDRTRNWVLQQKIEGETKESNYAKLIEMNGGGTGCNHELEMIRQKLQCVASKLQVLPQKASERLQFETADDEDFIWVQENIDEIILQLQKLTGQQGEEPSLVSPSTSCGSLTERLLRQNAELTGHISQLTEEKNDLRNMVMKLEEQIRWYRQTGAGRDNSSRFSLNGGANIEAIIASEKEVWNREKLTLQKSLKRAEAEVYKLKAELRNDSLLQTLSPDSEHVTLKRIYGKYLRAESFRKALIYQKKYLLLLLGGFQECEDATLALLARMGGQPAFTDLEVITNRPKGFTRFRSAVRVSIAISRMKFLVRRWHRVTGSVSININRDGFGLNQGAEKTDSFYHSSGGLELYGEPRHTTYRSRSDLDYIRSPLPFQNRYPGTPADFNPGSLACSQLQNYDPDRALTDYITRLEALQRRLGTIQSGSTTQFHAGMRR

These are yes or no findings as the source states them, for the method shown. Binding seen in cells or lysates may run through a third protein. Some results given as binding are weak or reduced against the parent protein; the word gives no strength.

For the substance “AKAP9, endogenous in HEK 293 cells (from UniProt Q99996 1-3907)”, the binding entry is recorded as “binds”.

Regarding “DOCK7, endogenous in HEK 293 cells (from UniProt Q96N67 1-2140)”, the binding result is recorded as “binds”.

These data come from article PMC4415471.
